Experimental data taken from the supplement of paper PMC10849652.
This is one part of the list.

Protein sequences, listed by entry. Tags and fused reporters are not part of them. Lines headed by an entry give the natural chain unless they say otherwise; changes in a name come on top.
UniProt Q9NRX1: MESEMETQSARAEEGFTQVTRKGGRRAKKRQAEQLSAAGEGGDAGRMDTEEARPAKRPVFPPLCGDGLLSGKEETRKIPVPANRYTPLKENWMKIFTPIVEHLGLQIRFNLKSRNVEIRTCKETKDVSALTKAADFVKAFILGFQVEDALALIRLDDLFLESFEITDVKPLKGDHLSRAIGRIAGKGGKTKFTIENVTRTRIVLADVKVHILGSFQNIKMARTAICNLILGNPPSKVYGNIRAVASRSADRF
UniProt O60664: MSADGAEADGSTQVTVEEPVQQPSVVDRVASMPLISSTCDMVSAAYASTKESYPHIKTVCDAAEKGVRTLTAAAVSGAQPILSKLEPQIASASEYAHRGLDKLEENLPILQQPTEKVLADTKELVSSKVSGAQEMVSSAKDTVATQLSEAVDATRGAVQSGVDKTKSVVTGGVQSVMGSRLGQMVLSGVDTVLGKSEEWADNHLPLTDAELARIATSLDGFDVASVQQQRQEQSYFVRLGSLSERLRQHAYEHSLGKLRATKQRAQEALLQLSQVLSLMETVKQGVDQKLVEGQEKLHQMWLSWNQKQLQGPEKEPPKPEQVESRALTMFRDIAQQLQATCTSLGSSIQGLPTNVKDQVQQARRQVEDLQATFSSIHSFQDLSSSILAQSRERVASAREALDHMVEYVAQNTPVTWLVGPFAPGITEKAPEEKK
UniProt O75817: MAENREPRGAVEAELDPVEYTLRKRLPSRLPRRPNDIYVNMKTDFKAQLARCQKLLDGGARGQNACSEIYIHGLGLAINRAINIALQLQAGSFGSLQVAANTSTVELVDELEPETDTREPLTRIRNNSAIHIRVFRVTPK
UniProt Q06203, whole entry, looked up: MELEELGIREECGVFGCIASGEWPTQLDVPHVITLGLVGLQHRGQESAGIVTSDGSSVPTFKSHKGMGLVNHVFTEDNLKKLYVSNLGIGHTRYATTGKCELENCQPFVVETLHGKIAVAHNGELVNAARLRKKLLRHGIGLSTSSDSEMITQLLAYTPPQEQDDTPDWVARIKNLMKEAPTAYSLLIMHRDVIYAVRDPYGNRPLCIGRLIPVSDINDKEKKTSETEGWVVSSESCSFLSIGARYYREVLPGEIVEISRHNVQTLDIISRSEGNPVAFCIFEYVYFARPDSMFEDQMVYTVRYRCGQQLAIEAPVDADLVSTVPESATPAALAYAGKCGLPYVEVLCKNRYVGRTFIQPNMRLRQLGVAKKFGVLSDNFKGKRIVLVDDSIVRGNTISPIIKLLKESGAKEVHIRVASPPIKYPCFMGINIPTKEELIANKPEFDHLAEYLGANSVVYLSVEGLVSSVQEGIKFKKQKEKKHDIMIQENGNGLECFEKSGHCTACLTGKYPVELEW
UniProt Q9NQ55: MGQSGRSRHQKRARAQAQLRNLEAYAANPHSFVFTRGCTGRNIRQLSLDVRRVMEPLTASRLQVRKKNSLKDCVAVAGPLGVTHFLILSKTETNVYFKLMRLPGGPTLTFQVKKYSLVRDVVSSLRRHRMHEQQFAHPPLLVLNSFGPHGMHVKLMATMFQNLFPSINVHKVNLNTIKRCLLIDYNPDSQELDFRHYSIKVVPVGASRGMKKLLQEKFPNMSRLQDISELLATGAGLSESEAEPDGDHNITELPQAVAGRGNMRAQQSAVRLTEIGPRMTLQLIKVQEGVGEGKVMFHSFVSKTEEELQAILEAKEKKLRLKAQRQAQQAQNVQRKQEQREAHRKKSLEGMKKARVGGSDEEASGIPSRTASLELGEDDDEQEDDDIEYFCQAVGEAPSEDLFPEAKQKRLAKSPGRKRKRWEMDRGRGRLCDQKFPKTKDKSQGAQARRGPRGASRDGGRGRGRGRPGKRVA
UniProt Q9H2U2: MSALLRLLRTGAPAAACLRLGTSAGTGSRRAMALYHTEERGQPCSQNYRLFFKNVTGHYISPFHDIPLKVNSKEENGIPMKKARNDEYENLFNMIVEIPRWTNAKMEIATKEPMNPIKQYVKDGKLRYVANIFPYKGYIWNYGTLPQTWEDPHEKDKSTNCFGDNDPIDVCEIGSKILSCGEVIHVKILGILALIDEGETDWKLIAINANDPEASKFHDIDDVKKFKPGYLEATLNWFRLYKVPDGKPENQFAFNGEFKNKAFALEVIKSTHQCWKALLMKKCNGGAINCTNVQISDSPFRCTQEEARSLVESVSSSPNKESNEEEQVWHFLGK
UniProt Q969H6: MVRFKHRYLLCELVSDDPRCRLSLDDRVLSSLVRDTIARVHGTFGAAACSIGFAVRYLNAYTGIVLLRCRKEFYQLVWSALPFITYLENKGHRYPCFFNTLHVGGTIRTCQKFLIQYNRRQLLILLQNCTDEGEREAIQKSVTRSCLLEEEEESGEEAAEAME
UniProt Q15063: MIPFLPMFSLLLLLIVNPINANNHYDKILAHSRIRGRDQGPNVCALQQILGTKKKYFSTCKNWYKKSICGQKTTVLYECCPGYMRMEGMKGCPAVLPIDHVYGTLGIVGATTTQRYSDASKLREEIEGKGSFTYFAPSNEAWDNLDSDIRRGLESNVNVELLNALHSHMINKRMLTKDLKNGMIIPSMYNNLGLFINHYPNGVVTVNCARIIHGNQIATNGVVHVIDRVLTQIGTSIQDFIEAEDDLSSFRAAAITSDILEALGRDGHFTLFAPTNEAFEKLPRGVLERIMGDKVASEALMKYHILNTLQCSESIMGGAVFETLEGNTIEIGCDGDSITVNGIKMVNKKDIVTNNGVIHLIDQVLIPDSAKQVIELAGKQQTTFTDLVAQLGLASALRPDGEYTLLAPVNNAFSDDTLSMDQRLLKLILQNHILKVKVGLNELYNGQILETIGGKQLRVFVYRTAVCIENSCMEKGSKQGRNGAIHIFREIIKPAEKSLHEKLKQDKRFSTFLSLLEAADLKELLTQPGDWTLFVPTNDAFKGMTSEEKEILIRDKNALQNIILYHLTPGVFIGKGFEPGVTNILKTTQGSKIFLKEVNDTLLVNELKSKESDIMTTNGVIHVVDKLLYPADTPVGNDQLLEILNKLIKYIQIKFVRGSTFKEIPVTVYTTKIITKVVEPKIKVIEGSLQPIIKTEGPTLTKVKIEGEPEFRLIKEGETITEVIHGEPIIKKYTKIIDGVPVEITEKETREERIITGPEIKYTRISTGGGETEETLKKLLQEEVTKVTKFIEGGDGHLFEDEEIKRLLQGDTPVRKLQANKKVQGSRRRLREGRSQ
UniProt Q9Y2S7: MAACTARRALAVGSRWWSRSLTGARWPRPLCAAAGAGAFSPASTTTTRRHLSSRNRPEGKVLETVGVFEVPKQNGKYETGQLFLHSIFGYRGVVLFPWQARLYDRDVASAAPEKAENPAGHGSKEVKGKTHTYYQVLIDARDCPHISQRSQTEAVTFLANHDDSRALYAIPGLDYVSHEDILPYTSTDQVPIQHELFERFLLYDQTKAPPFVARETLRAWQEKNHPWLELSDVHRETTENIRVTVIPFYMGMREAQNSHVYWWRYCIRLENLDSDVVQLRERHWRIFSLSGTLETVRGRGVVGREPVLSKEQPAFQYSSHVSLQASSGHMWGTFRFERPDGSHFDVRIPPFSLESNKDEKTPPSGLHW
UniProt Q96CD2: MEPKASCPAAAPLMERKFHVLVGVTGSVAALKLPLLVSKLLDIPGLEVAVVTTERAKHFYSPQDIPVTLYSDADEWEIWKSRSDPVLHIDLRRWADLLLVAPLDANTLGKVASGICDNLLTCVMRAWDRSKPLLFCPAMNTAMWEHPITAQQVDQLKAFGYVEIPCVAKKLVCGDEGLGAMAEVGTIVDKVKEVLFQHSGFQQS
UniProt Q6UW63: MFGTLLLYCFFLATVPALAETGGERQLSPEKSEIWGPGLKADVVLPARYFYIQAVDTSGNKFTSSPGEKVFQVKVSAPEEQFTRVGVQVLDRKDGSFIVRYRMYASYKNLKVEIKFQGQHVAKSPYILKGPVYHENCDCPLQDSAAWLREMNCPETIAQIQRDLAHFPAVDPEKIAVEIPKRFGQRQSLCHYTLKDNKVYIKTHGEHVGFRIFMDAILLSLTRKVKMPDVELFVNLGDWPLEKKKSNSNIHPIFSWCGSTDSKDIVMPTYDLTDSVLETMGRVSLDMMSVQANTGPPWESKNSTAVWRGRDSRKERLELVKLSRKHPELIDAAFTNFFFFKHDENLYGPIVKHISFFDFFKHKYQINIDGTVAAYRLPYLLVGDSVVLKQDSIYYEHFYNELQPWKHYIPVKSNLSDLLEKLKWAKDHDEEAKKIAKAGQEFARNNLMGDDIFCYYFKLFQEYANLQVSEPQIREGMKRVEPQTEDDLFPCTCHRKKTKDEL
UniProt Q9H1D9: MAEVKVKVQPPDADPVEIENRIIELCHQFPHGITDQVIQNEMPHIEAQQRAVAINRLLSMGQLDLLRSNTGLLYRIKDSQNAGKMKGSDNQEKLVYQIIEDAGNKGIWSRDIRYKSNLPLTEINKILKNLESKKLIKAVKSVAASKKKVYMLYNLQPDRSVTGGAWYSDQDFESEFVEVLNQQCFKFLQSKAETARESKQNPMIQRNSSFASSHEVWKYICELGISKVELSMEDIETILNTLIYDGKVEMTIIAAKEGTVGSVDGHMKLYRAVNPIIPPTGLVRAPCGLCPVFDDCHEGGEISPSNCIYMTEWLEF
UniProt Q15181: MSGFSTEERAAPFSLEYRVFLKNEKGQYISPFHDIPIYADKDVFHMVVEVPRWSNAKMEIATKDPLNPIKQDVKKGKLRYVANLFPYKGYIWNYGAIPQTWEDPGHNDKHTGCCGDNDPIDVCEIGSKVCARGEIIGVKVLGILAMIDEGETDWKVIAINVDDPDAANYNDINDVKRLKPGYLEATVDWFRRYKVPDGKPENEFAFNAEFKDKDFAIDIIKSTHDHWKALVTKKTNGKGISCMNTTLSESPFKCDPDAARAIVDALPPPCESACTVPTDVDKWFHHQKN
UniProt A5A3E0, whole entry, looked up: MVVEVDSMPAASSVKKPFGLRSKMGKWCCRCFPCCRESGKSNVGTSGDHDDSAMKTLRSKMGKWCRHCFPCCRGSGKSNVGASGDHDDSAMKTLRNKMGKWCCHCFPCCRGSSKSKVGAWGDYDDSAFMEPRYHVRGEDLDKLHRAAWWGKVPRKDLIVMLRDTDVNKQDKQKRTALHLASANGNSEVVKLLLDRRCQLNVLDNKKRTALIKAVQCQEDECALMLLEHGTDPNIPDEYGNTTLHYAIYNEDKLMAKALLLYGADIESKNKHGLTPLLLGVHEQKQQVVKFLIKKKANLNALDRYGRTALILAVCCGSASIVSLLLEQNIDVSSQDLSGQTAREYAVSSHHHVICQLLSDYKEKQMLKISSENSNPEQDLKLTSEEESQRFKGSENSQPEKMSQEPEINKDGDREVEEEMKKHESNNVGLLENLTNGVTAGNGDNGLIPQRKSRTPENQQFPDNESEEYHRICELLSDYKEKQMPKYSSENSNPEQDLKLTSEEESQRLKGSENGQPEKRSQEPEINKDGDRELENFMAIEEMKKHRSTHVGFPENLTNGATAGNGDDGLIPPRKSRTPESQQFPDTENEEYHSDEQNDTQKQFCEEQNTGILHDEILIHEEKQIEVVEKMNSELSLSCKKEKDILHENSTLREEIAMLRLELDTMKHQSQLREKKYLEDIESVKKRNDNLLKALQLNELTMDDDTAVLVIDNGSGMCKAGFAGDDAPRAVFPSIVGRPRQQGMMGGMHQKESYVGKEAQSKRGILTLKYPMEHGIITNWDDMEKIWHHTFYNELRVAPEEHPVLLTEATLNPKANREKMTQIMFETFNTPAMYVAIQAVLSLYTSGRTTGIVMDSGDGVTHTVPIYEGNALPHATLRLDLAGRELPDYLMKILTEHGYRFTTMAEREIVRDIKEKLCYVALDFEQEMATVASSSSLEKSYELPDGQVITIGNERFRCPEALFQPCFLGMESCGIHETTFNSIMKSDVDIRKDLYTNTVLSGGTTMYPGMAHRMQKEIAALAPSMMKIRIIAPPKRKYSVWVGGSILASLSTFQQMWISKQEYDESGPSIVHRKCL
UniProt Q8N490: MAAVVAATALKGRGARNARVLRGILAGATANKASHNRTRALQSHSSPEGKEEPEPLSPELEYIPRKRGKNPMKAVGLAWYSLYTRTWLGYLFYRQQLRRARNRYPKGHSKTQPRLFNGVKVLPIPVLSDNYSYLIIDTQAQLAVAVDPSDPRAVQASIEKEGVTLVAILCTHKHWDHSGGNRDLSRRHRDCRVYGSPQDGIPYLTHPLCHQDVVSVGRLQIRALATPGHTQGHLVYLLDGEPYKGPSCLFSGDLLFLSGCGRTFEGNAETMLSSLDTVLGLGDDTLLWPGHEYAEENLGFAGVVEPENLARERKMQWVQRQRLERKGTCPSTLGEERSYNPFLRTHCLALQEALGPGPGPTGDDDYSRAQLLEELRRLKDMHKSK
UniProt P30405: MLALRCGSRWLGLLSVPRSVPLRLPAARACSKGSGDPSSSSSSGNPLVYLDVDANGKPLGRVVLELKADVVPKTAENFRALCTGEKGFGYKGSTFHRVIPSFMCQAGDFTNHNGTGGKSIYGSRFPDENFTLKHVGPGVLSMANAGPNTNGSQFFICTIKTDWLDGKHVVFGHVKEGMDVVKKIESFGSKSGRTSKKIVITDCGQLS

What follows are targets tested with COc1cccc2cc(-c3nc([C@H]4CC[C@H](C(=O)O)CC4)n4ncnc(N)c34)[nH]c12 (assay: log2 fold change, soluble protein after heating vs DMSO (PISA); higher = thermal stabilisation; K562 cells, 10 uM, 30 min; active = over 0.2 and 3.5 SD of the protein, either way, in both replicates (recomputed)).
How it was run: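 K562 cells at 2×10^6 cells/mL were treated for 30 min with 10 μM compound, and aliquots were heated for 3 min over 48°C-58°C before pooling. Extraction used PBS with 0.5% NP-40 at 4°C, and soluble protein was the supernatant after 21,000xg for 90 min, measured by TMTpro 16plex LC-MS/MS with channel sums equalised. Thermal stability values, relative to control samples and from duplicates, are log2 fold changes.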

log2 fold change, inactive:
PNO1 (UniProt Q9NRX1) -0.247, PLIN3 (UniProt O60664) 0.022, POMGNT1 isoform 2 (UniProt Q8WZA1) -0.145, POP7 (UniProt O75817) 0.054, PPAT (UniProt Q06203) 0.055, PPAN isoform 3 (UniProt Q9NQ55) 0.119, PPA2 (UniProt Q9H2U2) 0.04, POP5 (UniProt Q969H6) 0.057, POSTN (UniProt Q15063) 0.196, POLDIP2 (UniProt Q9Y2S7) 0.009, PPCDC (UniProt Q96CD2) 0.116, POLR2H (UniProt P52434) -0.016, POGLUT2 (UniProt Q6UW63) 0.053, POLR3F (UniProt Q9H1D9) -0.015, PPA1 (UniProt Q15181) 0.008, POTEF (UniProt A5A3E0) -0.004, POU2F1 isoform 6 (UniProt P14859) 0.124, PNKD isoform 2 (UniProt Q8N490) 0.04, PPIF (UniProt P30405) 0.025, PPIE (UniProt Q9UNP9) -0.006
